# Assay results reported in PubChem BioAssay AID493014 (National Center for Advancing Translational Sciences (NCATS), 2011).
# In all, about 340,000 compounds went through this assay and about 170 (0.05%) were called active. The shares of active, inactive and inconclusive entries below differ from those in the screen. Calls follow the shape of the dose curve; as a rule, active = well fitted inhibition curve with a large enough effect in the signal ratio, with a control signal flat (not every such curve was filed as active); inconclusive = small, poorly fitted or top-dose-only effect, or effect the other way, or a change in a side signal; inactive = flat fitted curve, though single readings scatter; the % refers to the signal ratio. Potencies beside an inconclusive call are fits to weak or partial responses and may not hold up.
# Test: qHTS Assay to Find Inhibitors of Chronic Active B-Cell Receptor Signaling;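 as to activity change, negative = inhibition: plate controls were basal doxycycline-induced cells for no effect and cells given 10 µM MG132 for full effect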
# Conditions: ABC-DLBCL IkBa-CBG/CBR reporter, luminescence ratio (green luciferase fused to IkBa over red control in TMD8 lymphoma cells), 4 h; activity change, negative = inhibition: at 46.1 µM (top of the series)
# Summary of the method: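 Concentration-response series (up to 46 uM) were applied to TMD8 dual-reporter cells for 4 h at 37C with doxycycline. Green/red ratio, after filter-overlap correction, defined %Activity; red signal alone was normalised to basal cells and zero luminescence.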
# Potency is read from the fitted curve at half-maximal effect.
Compound,"activity change, negative = inhibition",Potency
CC(=O)c1sc(N/N=C\c2cccc(Br)c2)nc1C,inconclusive: 6.82%,–
CN(C)c1ccc(/C=C/c2ccc3c4ccccc4ccc3[n+]2-c2ccccc2)cc1,–,"inconclusive: 14.1 µM [rising, single point]"
CC(C(=O)O)c1n[nH]c(=O)c2ccccc12 (configuration not stated),inconclusive: 1.79%,–
CC(=O)CSc1cc(C)nc2c(-c3ccccc3)c(C)nn12,inactive,–
CCCCn1c(-c2nonc2N)nc2ccccc21,inactive,–
COc1ccc(C(=O)N2CCN(Cc3cn[nH]c3-c3ccc(OC)cc3F)CC2)cc1,inconclusive: -0.342%,–
CC1Cc2ccccc2N1C(=O)CSc1nc2ccccc2s1 (configuration not stated),inconclusive: 15.9%,–
O=C(Cc1c(F)c(F)c(F)c(F)c1F)Nc1nc(-c2ccccc2)cs1,inactive,–
CCOCCCNC(=O)c1ccc2c(c1)N=C(CC)c1cc(Br)ccc1S2,–,"inconclusive: 0.112 µM [falling, full curve, poor fit]"
Nc1nc2nc[nH]c2c(=O)[nH]1,inactive,–
COc1cc(/C=N/NC(=O)c2ccc(O)cc2)ccc1Oc1ccc([N+](=O)[O-])cn1,–,"inconclusive: 2.31 µM [falling, full curve]"
COc1ccccc1/C=C/C(=O)NC(=S)N(C)C1CCCCC1,–,"inconclusive: 35.5 µM [falling, single point]"
COC(=O)c1ccc(CN2C(=O)C3CCCCC3C2=O)o1 (configuration not stated),–,"inconclusive: 3.55 µM [falling, single point]"
COc1cc2c(cc1OC)CN(C1CCC(C)CC1)CC2 (configuration not stated),inconclusive: 4.95%,–
C/C(=N\N=C\c1ccc(N(C)C)cc1)c1cccc([N+](=O)[O-])c1,inconclusive: 13.6%,–
CC(C)CN(C(=O)CN1CCN(c2ccc([N+](=O)[O-])cc2)CC1)c1c(N)n(CC(C)C)c(=O)[nH]c1=O,inconclusive: 3.54%,–
Cc1nc2ccc(NC(=O)c3cccc(C(F)(F)F)c3)cc2o1,–,"inconclusive: 18.4 µM [falling, single point]"
CC(C)N=c1c([N+](=O)[O-])nn(C)n1O,inactive,–
Cc1ccccc1-c1nc(CS(=O)CC(=O)NCc2ccc3c(c2)OCO3)c(C)o1 (configuration not stated),inconclusive: -13.3%,–
Cc1cccc(NC(=O)c2ccc(NC(=O)c3ccccc3Br)cc2)c1,inconclusive: 11.7%,–
CC1Sc2ccc(S(=O)(=O)N3CCC(C(=O)NCc4ccc(Cl)cc4)CC3)cc2NC1=O (configuration not stated),inconclusive: -0.117%,–
COC(=O)c1[nH]c2ccccc2c1Sc1ccccc1,inconclusive: 3.95%,–
CCCOc1ccc(N2C(=O)CC(N(CCc3ccc(OC)c(OC)c3)C(=S)Nc3ccccc3)C2=O)cc1 (configuration not stated),inconclusive: 5.36%,–
O=C(CCN1C(=O)COc2ccccc21)N1CCCCC1,inconclusive: -0.847%,–
N#CC1=C(N)Oc2c(O)cc3ccccc3c2C1c1ccsc1 (configuration not stated),inconclusive: -8.52%,–
COCC(=O)Nc1ccc(C)c(Cl)c1,inconclusive: 5.87%,–

Compound,"activity change, negative = inhibition",Potency
CCn1c2ccccc2c2cc(C3C(C#N)=C(N)Oc4n[nH]c(COC)c43)ccc21 (configuration not stated),inconclusive: -16.8%,–
Cc1ccc(N/N=C(\C#N)C(=N)N2CCCCCC2)cc1,inconclusive: 14.9%,–
CC1(C)C2CCC1(C)C(OC(=O)CSc1nc(N)cc(=O)[nH]1)C2 (configuration not stated),inactive,–
N#Cc1cc(Oc2cccc3cccnc23)c(-n2nnc3ccccc32)cc1C#N,–,active: 7.94 µM
Nn1c(Cc2cccc3ccccc23)nnc1SCc1c(Cl)cccc1Cl,inactive,–
Cc1nnc(N/N=C/c2cccc(OCc3ccc(Cl)c(Cl)c3)c2)n1N,inconclusive: 0.454%,–
CCOc1ccc(-n2c(C)cc(C(=O)CCl)c2C)cc1,–,"inconclusive: 35.5 µM [falling, single point]"
CN(C)/C=C(\C=O)c1onc(-c2ccccc2Cl)c1C#N,–,"inconclusive: 22.4 µM [falling, single point]"
O=C(O)/C=C/S(=O)(=O)c1ccc2ccccc2c1,inconclusive: -12.8%,–
CCCc1nc2ccccc2c(C(=O)OCC(=O)N2CCc3ccccc32)c1CC,inactive,–
CC(=O)Nc1ccc(NC(=O)C(C)OC(=O)CNS(=O)(=O)/C=C/c2ccc(C)cc2)cc1 (configuration not stated),inactive,–
COc1ccccc1NC(=O)c1cc(N2C(=O)C3C4CCC(C4)C3C2=O)ccc1Cl (configuration not stated),–,"inconclusive: 20 µM [falling, single point]"
CCC(=O)N1CC2(CC(c3cccc(NC(=O)COc4ccc(Cl)cc4)c3)=NO2)C[C@@H]1C(N)=O (some centres not stated),inconclusive: -17%,–
C[C@H](CO)N1C[C@H](C)[C@@H](CN(C)S(=O)(=O)c2cccs2)Oc2c(NC(=O)Nc3ccc4c(c3)OCO4)cccc2C1=O,inconclusive: 2.15%,–
c1csc(CNc2ncnc3ccc(-c4ccc5c(c4)OCO5)cc23)c1,–,"inconclusive: 20.6 µM [falling, partial curve, poor fit]"
CCOC(=O)N1CCN(c2ncnc3scc(-c4ccc(Cl)cc4)c23)CC1,inconclusive: -20%,–
CNC(=S)N(C1=NCC(c2ccc([N+](=O)[O-])cc2)S1)c1ccccc1 (configuration not stated),inconclusive: -14.9%,–
CCCc1nnc(NC(=O)CCC(=O)N2CCN(CCn3c(C)ccc3C)CC2)s1,inconclusive: 4.05%,–
COc1ccccc1NC(=O)Nc1ccc(N2CCOCC2)cc1,–,"inconclusive: 6.31 µM [falling, partial curve]"
COC(=O)CC(=O)Cc1nc(N)nc(Nc2ccc(C)c(C)c2)n1,inactive,–
Cc1ccc(OCCCC(=O)N2CCOCC2)c(C)c1,inconclusive: 7.05%,–
O=C(Nc1ccc(Br)cn1)c1cccc(S(=O)(=O)N2CCCC2)c1,inconclusive: 13.3%,–
Cc1ncc(/C=C2\C(=O)Nc3ccccc32)[nH]1,inconclusive: -16.4%,–
Cc1c(CCC(=O)O)c(=O)oc2cc(OCc3cccc(Cl)c3)ccc12,inconclusive: 6.91%,–
Cc1ccc2[nH]c3nc(N/N=C/c4cccc(O)c4)nnc3c2c1,–,"inconclusive: 2.24 µM [falling, partial curve, poor fit]"
CCc1cc(CNC(=O)c2cc(COc3ccc(C)nc3)on2)on1,inactive,–

# Full records as entered above:
# `CCCc1nnc(NC(=O)CCC(=O)N2CCN(CCn3c(C)ccc3C)CC2)s1` is listed with activity change, negative = inhibition: inconclusive: 4.05%
# `CCCc1nc2ccccc2c(C(=O)OCC(=O)N2CCc3ccccc32)c1CC` is listed with activity change, negative = inhibition: inactive
# `c1csc(CNc2ncnc3ccc(-c4ccc5c(c4)OCO5)cc23)c1` is listed with Potency: inconclusive: 20.6 µM [falling, partial curve, poor fit]
# `CCOC(=O)N1CCN(c2ncnc3scc(-c4ccc(Cl)cc4)c23)CC1` is listed with activity change, negative = inhibition: inconclusive: -20%
